In PMC6177257:
These are yes or no findings as the source states them, for the method shown. Binding seen in cells or lysates may run through a third protein. Some entries that bind do so weakly or less than the wild type. For some assays here: Where a sequence is shown, tags or fusion partners need not be part of it. One block for each binder: values may come before it.

By UniProt entry, the sequences of proteins in these tests, tags left out.
UniProt P29555: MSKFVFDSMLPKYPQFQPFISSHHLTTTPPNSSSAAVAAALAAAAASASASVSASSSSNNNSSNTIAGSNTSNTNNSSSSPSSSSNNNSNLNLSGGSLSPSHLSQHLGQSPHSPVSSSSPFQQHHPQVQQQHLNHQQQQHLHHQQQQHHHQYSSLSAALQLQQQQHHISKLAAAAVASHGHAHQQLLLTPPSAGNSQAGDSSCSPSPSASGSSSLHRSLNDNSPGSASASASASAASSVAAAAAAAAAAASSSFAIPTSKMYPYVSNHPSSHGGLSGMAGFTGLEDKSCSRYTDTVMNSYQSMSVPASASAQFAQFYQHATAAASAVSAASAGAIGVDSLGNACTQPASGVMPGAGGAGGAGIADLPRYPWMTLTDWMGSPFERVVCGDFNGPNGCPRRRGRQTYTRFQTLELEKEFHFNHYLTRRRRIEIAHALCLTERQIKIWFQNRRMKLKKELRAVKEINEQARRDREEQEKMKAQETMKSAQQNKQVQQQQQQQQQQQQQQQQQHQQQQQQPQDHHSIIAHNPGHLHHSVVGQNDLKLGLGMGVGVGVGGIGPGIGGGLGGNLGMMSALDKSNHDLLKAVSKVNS
UniProt P83949: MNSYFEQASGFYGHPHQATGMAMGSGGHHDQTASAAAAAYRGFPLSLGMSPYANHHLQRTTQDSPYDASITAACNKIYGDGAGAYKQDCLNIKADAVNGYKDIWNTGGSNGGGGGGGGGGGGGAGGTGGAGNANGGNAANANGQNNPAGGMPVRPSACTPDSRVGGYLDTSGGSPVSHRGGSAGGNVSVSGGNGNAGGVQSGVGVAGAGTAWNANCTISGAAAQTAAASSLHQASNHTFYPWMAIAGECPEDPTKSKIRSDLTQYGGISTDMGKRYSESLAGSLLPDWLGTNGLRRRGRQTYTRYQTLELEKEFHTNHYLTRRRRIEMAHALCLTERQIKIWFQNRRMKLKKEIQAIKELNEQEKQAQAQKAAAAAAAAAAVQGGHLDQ

Tests used:
[1] = target: VN-AbdA (AbdominalA fused to the N-terminal fragment of Venus) (Drosophila (D. melanogaster)), P29555; assay: split reporter; Venus- or Cerulean-based BiFC in live Drosophila embryos; ORF-CC with VN-AbdA or CN-AbdA; abdA-Gal4 driver (epidermis, stage 10/11) or 24B-Gal4 driver (somatic mesoderm, stage 14); confocal observation; details: remark: other sources report otherwise
[2] = target: CN-AbdA (AbdominalA fused to the N-terminal fragment of Cerulean) (Drosophila (D. melanogaster)), P29555; assay: as above; details: remark: other sources report otherwise
[3] = target: AbdominalA (AbdA), bait of the large-scale BiFC screen (Drosophila (D. melanogaster)) (UniProt P29555); assay: split reporter; large-scale BiFC screen of 260 TFs (VN or CC fusions) with Ubx and AbdA in live Drosophila embryos; Ubx-Gal4 or abdA-Gal4 driver, epidermis of stage 10 embryos
[4] = target: Ultrabithorax (Ubx), bait of the large-scale BiFC screen (Drosophila (D. melanogaster)) (UniProt P83949); assay: as above
[5] = target: VC-Ubx (Ultrabithorax fused to the C-terminal fragment of Venus) (Drosophila (D. melanogaster)) (UniProt P83949); assay: split reporter; Venus-based BiFC in live Drosophila embryos; VC-Ubx and VN-Twi expressed with Ubx-Gal4, twi-Gal4 or the split-Gal4 system (Ubx-Gal4AD/twi-Gal4DBD); epidermis, somatic mesoderm and midgut visceral mesoderm
[6] = target: CN-AbdA (AbdominalA fused to the N-terminal fragment of Cerulean) (Drosophila (D. melanogaster)) (UniProt P29555); assay: split reporter; Venus- or Cerulean-based BiFC in live Drosophila embryos; ORF-CC with VN-AbdA or CN-AbdA; abdA-Gal4 driver (epidermis, stage 10/11) or 24B-Gal4 driver (somatic mesoderm, stage 14); confocal observation
[7] = target: VN-AbdA (AbdominalA fused to the N-terminal fragment of Venus) (Drosophila (D. melanogaster)) (UniProt P29555); assay: as above
[8] = target: CN-AbdA (AbdominalA fused to the N-terminal fragment of Cerulean) (Drosophila (D. melanogaster)) (UniProt P29555); assay: split reporter; bicolour BiFC in live Drosophila embryos: ORF-CC co-expressed with CN-AbdA, VN-Exd and a mCherry reporter; abdA-Gal4 driver, stage 10 embryos
[9] = target: T1, VN-Exd (Extradenticle fused to the N-terminal fragment of Venus) (Drosophila (D. melanogaster)) (UniProt P40427); assay: as above
T1 sequence: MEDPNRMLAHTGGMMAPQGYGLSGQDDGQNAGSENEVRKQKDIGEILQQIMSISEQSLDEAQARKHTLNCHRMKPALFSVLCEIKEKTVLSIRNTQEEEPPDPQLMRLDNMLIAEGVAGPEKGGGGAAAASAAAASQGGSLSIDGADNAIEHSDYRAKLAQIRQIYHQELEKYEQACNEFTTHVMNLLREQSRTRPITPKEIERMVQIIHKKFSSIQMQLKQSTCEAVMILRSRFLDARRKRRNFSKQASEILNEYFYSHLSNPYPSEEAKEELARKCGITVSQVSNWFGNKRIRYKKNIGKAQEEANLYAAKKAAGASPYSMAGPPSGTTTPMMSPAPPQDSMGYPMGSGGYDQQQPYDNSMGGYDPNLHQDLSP

[10] = target: VN-AbdA (AbdominalA fused to the N-terminal fragment of Venus) (Drosophila (D. melanogaster)) (UniProt P29555); assay: split reporter; BiFC competition in live Drosophila embryos: VN-AbdA and ORF-CC with co-expression of the corresponding non-complementing ORF-3xHA; abdA-Gal4 driver, epidermis of stage 10/11 embryos; identical parameters of confocal acquisition
[11] = target: T2, sfGFPN-Exd (Extradenticle fused to the N-terminal fragment of super-folder GFP) (Drosophila (D. melanogaster)) (UniProt P40427); assay: split reporter; BiFC in live Drosophila embryos between ORF-CC constructs and VN-Exd or sfGFPN-Exd; abdA-Gal4 driver, epidermis of stage 10 embryos; sfGFP excitation and emission wavelengths for sfGFPN-Exd
T2 sequence: T1 sequence

B1: Pangolin ORF-CC (Pan-CC), P91943 1-751 (protein)
chain: MPHTHSRHGSSGDDLCSTDEVKIFKDEGDREDEKISSENLLVEEKSSLIDLTESEEKGHKISRPDHSPVFNKLDTHAPSFNMGYLVSPYSYANGSPSGLPVTMANKIGLPPFFCHNADPLSTPPPAHCGIPPYQLDPKMGLTRPALYPFAGGQYPYPMLSSDMSQVASWHTPSVYSASSFRTPYPSSLPINTTLASDFPFRFSPSLLPSVHATSHHVINAHSAIVGVSSKQECGVQDPTTNNRYPRNLEAKHTSNAQSNESKETTNDKKKPHIKKPLNAFMLYMKEMRAKVVAECTLKESAAINQILGRRWHELSREEQSKYYEKARQERQLHMELYPGWSARDNYGYVSKKKKRKKDRSTTDSGGNNMKKCRARFGLDQQSQWCKPCRRKKKCIRYMEALNGNGPAEDGSCFDEHGSQLSDDDEDDYDDDKLGGSCGSADETNKIEDEDSESLNQSMPSPGCLSGLSSLQSPSTTMSLASPLNMNANSATNVIFPASSNALLIVGADQPTAQQRPTLVSTSGSSSGSTSSISTTPNTSSTVSPVTCMTGPCLGSSQERAMMLGNRFSHLGMGLSPPVVSTSTSKSEPFFKPHPTVCNNPIFALPSIGNCSLNISSMPNTSRNPIGANPRDINNPLSINQLTKRREYKNVELIEASESKTIVAHAATSIIQHVAVNGYHANHSLLNSNLGHLHHQLNNRTENPNRSEQTMLSVSNHSVNSSECHKESDSQAIVSSNPPNAGSSDNGVISVS
binding [1]: no binding
binding [2]: no binding

binding [3]: binds
binding [4]: no binding
B2: Spalt major (Salm), VN or CC fusion of the multicolor BiFC library (protein, UniProt P39770 1-1365)
chain: MKNHLSNVLCAMRSDFKDNHQETINKMIQFGTVKYGIVKQLKDRARSADKDIGSDQEENGGCSPLTTATTTASPSRSPEPEEEQPEEQSTSEQSIPEQSTPDHQLENDIKSEAKSEIEPVEDNNNRVAMTKPSSEEREPNASGSMPSSPVAEASAEEAATERTPEKEKEKDVEVDVEKPDEAPSSAVPSTEVTLPGGAGAPVTLEAIQNMQMAIAQFAAKTIANGSNGADNEAAMKQLAFLQQTLFNLQQQQLFQIQLIQQLQSQLALNQAKQEEDTEEDADQEQDQEQETDTYEEEERIADMELRQKAEARMAEAKARQHLINAGVPLRESSGSPAESLKRRREHDHESQPNRRPSLDNTHKADTAQDALAKLKEMENTPLPFGSDLASSIITNHDDLPEPNSLDLLQKRAQEVLDSASQGILANSMADDFAFGEKSGEGKGRNEPFFKHRCRYCGKVFGSDSALQIHIRSHTGERPFKCNVCGSRFTTKGNLKVHFQRHAQKFPHVPMNATPIPEHMDKFHPPLLDQMSPTDSSPNHSPAPPPLGSAPASFPPAFPGLQNLYRPPMEILKSLGAAAPHQYFPQELPTDLRKPSPQLDEDEPQVKNEPVEEKDQREEHEQEMAECSEPEPEPLPLEVRIKEERVEEQEQVKQEDHRIEPRRTPSPSSEHRSPHHHRHSHMGYPPVVQPIQPAALMHPQSSPGSQSHLDHLPTPGQLPPREDFFAERFPLNFTTAKMLSPEHHSPVRSPAGGALPPGVPPPPHHHPHHMARSPFFNPIKHEMAALLPRPHSNDNSWENFIEVSNTCETMKLKELMKNKKISDPNQCVVCDRVLSCKSALQMHYRTHTGERPFKCRICGRAFTTKGNLKTHMAVHKIRPPMRNFHQCPVCHKKYSNALVLQQHIRLHTGEPTDLTPEQIQAAEIRDPPPSMMPGHFMNPFAAAAFHFGALPGGPGGPPGPNHGAHNGALGSESSQGDMDDNMDCGEDYDDDVSSEHLSNSNLEQEGDRSRSGDDFKSLLFEQKLRIDATGVVNTNPVRPRSSASSHGHSVGSTSAPTSPSVHASSQVIKRSSSPARSEASQGALDLTPRAAPTSSSSSRSPLPKEKPVSPPSLPRSPSGSSHASANILTSPLPPTVGIDCLPPGLQHHLQQQHQHLMQQQAAVAAAAAAQHHHHQQMAALHQHQEQLRREAAEAQQKAAAAAAAAAAAAAAQRQTPPQARDQRQEGGPGAGPPPNPLMGARPPFGMFPNLPLFPPATTQNMCNAMNQIAQSVMPAAPFNPLALSGVRGSTTCGICYKTFPCHSALEIHYRSHTKERPFKCSICDRGFTTKGNLKQHMLTHKIRDMEQETFRNRAVKYMSEWNEDRE

binding [5]: binds
B3: VN-Twi (Twist fused to the N-terminal fragment of Venus) (protein, UniProt P10627 1-490)
chain: MMSARSVSPKVLLDISYKPTLPNIMELQNNVIKLIQVEQQAYMQSGYQLQHQQQHLHSHQHHQQHHQQQHAQYAPLPSEYAAYGITELEDTDYNIPSNEVLSTSSNQSAQSTSLELNNNNTSSNTNSSGNNPSGFDGQASSGSSWNEHGKRARSSGDYDCQTGGSLVMQPEHKKLIHQQQQQQQQHQQQIYVDYLPTTVDEVASAQSCPGVQSTCTSPQSHFDFPDEELPEHKAQVFLPLYNNQQQQSQQLQQQQPHQQSHAQMHFQNAYRQSFEGYEPANSLNGSAYSSSDRDDMEYARHNALSSVSDLNGGVMSPACLADDGSAGSLLDGSDAGGKAFRKPRRRLKRKPSKTEETDEFSNQRVMANVRERQRTQSLNDAFKSLQQIIPTLPSDKLSKIQTLKLATRYIDFLCRMLSSSDISLLKALEAQGSPSAYGSASSLLSAAANGAEADLKCLRKANGAPIIPPEKLSYLFGVWRMEGDAQHQKA

binding [6]: binds
binding [7]: binds
binding [8]: binds
binding [9]: no binding
binding [10]: binds
binding [11]: no binding
B4: Empty spiracles ORF-CC (Ems-CC) (protein, UniProt P18488 1-494)
chain: MTKMIPPVPTAAAAVMMPTPKQKIGFSIESIVGNDVSTAGGNSTPDLSGPQSPPPGERNVPGSPPQTPPATLTLIPGSPPHHLMAPPAHGLPYPHPHAQQQHLQAPHPHPHLSPAQQHVLHQHLLMQQQHPGTPKSHQDIQELLQRLHHNAAMASGLSPLQTRLSPETEQPQMAVSLKRERSPAPPAMEQAENPAQRIQPPHTPPKSVSPQSSQPSSSPTLLISSPHATPPQQQQQQPPPNYPKPAMMHPGGAGPMMMPGMPPAGLVRPFPMGPGGPPMPQGQPGLPDIKALPPYINAPPELPPQHNPHLIAAAQFQMAAALQAGHVLGPAAAAAAAAGLPPHAAQFMPNPGMARDSYQLYPWLLSRHGRIFPHRFPGSFLVPPFRKPKRIRTAFSPSQLLKLEHAFESNQYVVGAERKALAQNLNLSETQVKVWFQNRRTKHKRMQQEDEKGGEGGSQRNMHNGSGDEDDDELIDMEMDECPSDEEHELDASH
